From the supplement of paper PMC6445147
Values scatter widely in this assay.

B1: human tRNA-Pro; a variant is named by its letters at N, in order (parent)
chain: GGCTCGTTGGTCTAGNGGTATGATTCTCGCTTAGGGTGCGAGAGGTCCCGGGTTCNNATCCCGGACGAGCCC

Variants of: B1
Experiment: tRNA 3' processing efficiency (processed reads / all reads, maximum-likelihood estimate) (fraction); higher = more efficient 3' processing
Settings: HEK293T; construct: no Pol-II promoter ((-)CMV library)

Row | Variant | tRNA 3' processing efficiency
1 | GGCTCGTTGGTCTAGGGGTATGATTCTCGCTTAGGGTGCGAGAGGCCCCGGGTTGGAATCCCGGACGAGCCC [GGA T46C C55G] | 0.09
2 | GGCTCGTTGGTCTAGGGGTATGATTCTCGCTTAGGGTGCGAGCGGTCCCGGGTTCACATCCCGGACGAGCCC [GAC A43C] | 0.2
3 | GGCTCGTTGGTCTAGGGGAATGATTCTCGCTTAGGATGCGAGAGGTCCCGGGTTCCATTCCCGGACGAGCCC [GCA T19A G36A A58T] | 0.5
4 | GGCTCGTGGGTCTTGGGGGATGATTCTCGCTTAGGGTGCGAGAGGTCCCGGGTTCGAGCCCCGGACGAGCCC [GGA T8G A14T T19G A58G T59C] | 0.2
5 | GGCTCGTTGGTCTGGGGATGTGATTCTCGCTTAGGGTGCGAGAGGTCCCGGGTTCACGTCCCGGACGAGCCC [GAC A14G G18A A20G A58G] | 0.33
6 | GGCTCGTCGGTCTAGGGGAATGATTCTCGCTTAGGGTGCGAGAGGTCCCGGGTTCTATTCCCGGACGAGCCC [GTA T8C T19A A58T] | 0.25
7 | GGCTCGTTGGTCTACGGGTATGATTCTCGCTTAAGGTGCGAGAGGTCCCGGGTTCAATACCCGGACGAGCCC [GAA G15C G34A A58T T59A] | 0.25
8 | GGCTCGTTGGTCTAGGGGAATGATTCTCGCTTAGGGTGCGAGAGGTCCCGGGATGGAATCCCGGACGAGCCC [GGA T19A T53A C55G] | 0.2
9 | GGCTCGTTGGTCTAGAGGATTGATTCTCGCTTAGGGTGCGAGAGGTCCCGGGTTCAATTCCCGGACGAGCCC [AAA T19A A20T A58T] | 0.43
10 | GGCTCGTTGGTCTAGGGGATTGATTCTCGCTTAGGGTGCGAGAGGTCCCGAGTTCTACTCCCGGACGAGCCC [GTA T19A A20T G51A A58C] | 0.67
11 | GGCTCGTTGGTCTATGTGAATGATTCTCGCTTAGGGTGCGAGAGGTCCCGGGTTCCAACCCCGGACGAGCCC [GCA G15T G17T T19A T59C] | 0.33
12 | GGCTCGTTGGTCTAGGGGTCTGATTCTCGCTTAGGGTGCGAGAGGTCCCGGGTTTAGATCTCGGACGAGCCC [GAG A20C C55T C61T] | 0.25
13 | GGCTCGTTGGTCTCGCGGTATGATTCTCGCTTAGGGTGCGAGAGGTCCCGGGTTTAAGTCCCGGACGAGCCC [CAA A14C C55T A58G] | 0.33
14 | GGCTCGTCGGTCTAGAGGAATGATTCTCGCTTAGGGTGCGAGAGGTCCCGGGTTCAAAGCCCGGACGAGCCC [AAA T8C T19A T59G] | 0.33
15 | GGCTCGTTGGTCTCGGCATATGATTCTCGCTTAGGGTGCGAGAGGTCCCGGGTTCAGATCCCGGACGAGCCC [GAG A14C G17C G18A] | 0.25
16 | GGCTCGTTGGTCTAAGCGTTTGATTCTCGCTTAGGGTGCGAGAGGTCCCGGGTTCTATTCCCGGACGAGCCC [GTA G15A G17C A20T A58T] | 0.14
17 | GGCTCGTTTGTCTAAGGGTATGATTCTCGCTTAGGGTGCGAGAGGTCCCGGGTTGAAGTCCCGGACGAGCCC [GAA G9T G15A C55G A58G] | 0.33
18 | GGCTCGTTGGTCTAGATGTTTGATTCTCGCTTAGGGTGCGAGAGGTCCCGGGTTCTAATCCCGGACGAGCCC [ATA G17T A20T] | 0.43
19 | GGCTCGTTAGTCTCGGGGAATGATTCTCGCTTAGGGTGCGAGAGGTCCCGGGTTCAACTCCCGGACGAGCCC [GAA G9A A14C T19A A58C] | 0.4

Row | Variant | tRNA 3' processing efficiency
20 | GGCTCGTTGGTCTAGTGGACTGATTCTCGCTTAGGGTGCGAGAGGTCCCGGGAAAGAATCCCGGACGAGCCC [TGA T19A A20C T53A T54A C55A] | 0.25
21 | GGCTCGTTGGTCTAGGGGATTGATTCTCGCTTAGGGTGCGAGAGGTCCCGGGTTCCTATCCCGGACGAGCCC [GCT T19A A20T] | 0.47
22 | GGCTCGTTGGTCTAGGGGATTGATTCTCGCTTAGGGTGCGAGAGGTCCCGGGTTCGACACCCGGACGAGCCC [GGA T19A A20T A58C T59A] | 0.43
23 | GGCTCGTTGGTCTAAGGGGATGATTCTCGCTTAGGGTGCGAGAGGTCCCGGGTACGGATCCCGGACGAGCCC [GGG G15A T19G T54A] | 0.44
24 | GGCTCGTTGGTCTGAGGGTATGATTCTCGCTTAGGGTGCGAGAGGTCCCGGGTTCAAGGCCCGGACGAGCCC [GAA A14G G15A A58G T59G] | 0.25
25 | GGCTCGTTGGTCTTGAGGTTTGATTCTCGCTTAGGGTGCGAGAGGTCCCGAGTTCAAATCCCGGACGAGCCC [AAA A14T A20T G51A] | 0.17
26 | GGCTCGTTGGTCTACAGGTATGATTCTCGCTTAGGGTGCGAGAGGTCCCGGGTTCGTATCCCGGACGAGCCC [AGT G15C] | 0.04
27 | GGCTCGTTGGTCTAGGGGCATGATTCTCGCTTAGGGTGCGAGAGGTCCCGGGTTCAAATCCCGAACGAGCCC [GAA T19C G64A] | 0.29
28 | GGCTCGTTTGTCTAGGGGATTGATTCTCGCTTAGGGTGCGAGAGGTCCCGGGTTCAATGCCCGGACGAGCCC [GAA G9T T19A A20T A58T T59G] | 0.25
29 | GGCTCGTTGGTCTTGGTGTATGATTCTCGCTTAGGGTGCGAGAGGTCCCGGGTTCTGAACCCGGACGAGCCC [GTG A14T G17T T59A] | 0.5
30 | GGCTCGTTGGTCTAGCGGTATGATTCTCGCTTAGGGTGCGAGAGGTCCCGGGTTAGAAACCCGGACGAGCCC [CGA C55A T59A] | 0.25
31 | GGCTCGTTAGTCTAGAGGTATGATTCTCGCTTAGGGTGCGAGAGGTCCCGGGTTTTAATCCCGGACGAGCCC [ATA G9A C55T] | 0.62
32 | GGCTCGTTGGTCTAGGAGCATGATTCTCGCTTAGGGTGCGAGAGGTCCCGGGATCAGGACCCGGACGAGCCC [GAG G17A T19C T53A A58G T59A] | 0.67
33 | GGCTCGTTGGTCTAGGGGGATGTTTCTCGCTTAGGGTGCGAGAGGTCCCGGGTTCAAACCCCGGACGAGCCC [GAA T19G A23T T59C] | 0.25
34 | GGCTCGTTGGTCTCGGGATATGATTCTCGCTTAGGGTGCGAGAGGTCCCGGGATCAAAGCCCGGACGAGCCC [GAA A14C G18A T53A T59G] | 0.5
35 | GGCTCGTCGGTCTAGGGGAATGATTCTCGCTTAGGGTGCGAGAGGTCCCGGGTTCAATCCCCGGACGAGCCC [GAA T8C T19A A58T T59C] | 0.62
36 | GGCTCGTTGGTCTAGGGGGCTGATTCTCGCTTAGGGTGCGAGAGGTCCCGGGTTCAGTCCCCGGACGAGCCC [GAG T19G A20C A58T T59C] | 0.25
37 | GGCTCGTTGGTCTCGGGGTATGATTCTCGCTTAGGGTGCGAGAGGACCCGGGTTCAAATCCCGGACGAGCCC [GAA A14C T46A] | 0.11

Looked up one by one from the entries so far (three):
Row | Variant | tRNA 3' processing efficiency
28 | GGCTCGTTTGTCTAGGGGATTGATTCTCGCTTAGGGTGCGAGAGGTCCCGGGTTCAATGCCCGGACGAGCCC [GAA G9T T19A A20T A58T T59G] | 0.25
37 | GGCTCGTTGGTCTCGGGGTATGATTCTCGCTTAGGGTGCGAGAGGACCCGGGTTCAAATCCCGGACGAGCCC [GAA A14C T46A] | 0.11
33 | GGCTCGTTGGTCTAGGGGGATGTTTCTCGCTTAGGGTGCGAGAGGTCCCGGGTTCAAACCCCGGACGAGCCC [GAA T19G A23T T59C] | 0.25
